Literature values, collected in US9289506B2, “Surface binding of nanoparticle based drug delivery to tissue” (Massachusetts Institute of Technology, priority 2013, dated 2016).
At least one structure is not confirmed: it was looked up by name or label, or the drawing left a doubt.

Columns and labels:
bovine cartilage = settings: 10 nM; cited from earlier work
human cartilage = settings: 100 nM, mechanical injury plus TNFα and IL-6; cited from earlier work

## C[C@@H]1C[C@H]2[C@@H]3CCC4=CC(=O)C=C[C@]4(C)[C@@]3(F)[C@@H](O)C[C@]2(C)[C@@]1(O)C(=O)CO [DEX, dexamethasone]
Bovine cartilage
  GAG loss: significantly reduced GAG loss
  aggrecan-GAG biosynthesis: restored aggrecan-GAG biosynthesis levels back to normal
Human cartilage
  aggrecan-GAG loss: significantly reduced aggrecan-GAG loss
